Here are results for three molecules from paper doi:10.1101/821637.

These are yes or no findings as the source states them, for the method shown. For some assays here: Binding can be weak; no strength is given. For some assays here: Binding seen in cells or lysates may run through a third protein. For some assays here: Tags and fused reporters may be left off the sequences shown.

Experiment [1] deals with T1, Myc-tagged mouse ECH1 construct (ECH1-Myc) (mouse) (UniProt O35459).
T1 sequence: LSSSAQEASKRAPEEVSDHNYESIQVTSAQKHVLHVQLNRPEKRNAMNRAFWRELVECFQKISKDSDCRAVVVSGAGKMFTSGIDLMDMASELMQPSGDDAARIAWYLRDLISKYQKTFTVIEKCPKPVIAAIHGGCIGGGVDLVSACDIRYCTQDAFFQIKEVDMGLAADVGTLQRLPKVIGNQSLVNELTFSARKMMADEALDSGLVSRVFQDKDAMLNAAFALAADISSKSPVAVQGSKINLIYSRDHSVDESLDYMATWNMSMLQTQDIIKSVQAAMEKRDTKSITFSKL
Briefly: co-IP.

In experiment [2] the target is Myc-tagged human adenine nucleotide translocase (hANT-myc) (human). Briefly: co-IP.
For experiment [3], the target named is UCP3 hydrophilic domain 7 (HD7) bait. Briefly: two-hybrid.
Experiment [4] concerns the target UCP3 hydrophilic domain 6 (HD6) bait. In words: two-hybrid.
The target of experiment [5] is UCP3 hydrophilic domain 1 (HD1) bait. Briefly: two-hybrid.
In experiment [6] the target is UCP3 hydrophilic domain 2 (HD2) bait. Briefly: two-hybrid.
Experiment [7] deals with UCP3 hydrophilic domain 4 (HD4) bait. In words: two-hybrid.
For experiment [8], the target named is UCP3 hydrophilic domain 3 (HD3) bait. In words: two-hybrid.

Take “V5-tagged UCP3 truncation mutant lacking hydrophilic domain 4 (ΔHD4) (from UniProt P56501)”: the binding result in experiment [1] was “binds”.

B1: V5-tagged mouse UCP3 construct (UCP3-V5) (protein, UniProt P56501 1-308)
chain: MVGLQPSEVPPTTVVKFLGAGTAACFADLLTFPLDTAKVRLQIQGENPGAQSVQYRGVLGTILTMVRTEGPRSPYSGLVAGLHRQMSFASIRIGLYDSVKQFYTPKGADHSSVAIRILAGCTTGAMAVTCAQPTDVVKVRFQAMIRLGTGGERKYRGTMDAYRTIAREEGVRGLWKGTWPNITRNAIVNCAEMVTYDIIKEKLLESHLFTDNFPCHFVSAFGAGFCATVVASPVDVVKTRYMNAPLGRYRSPLHCMLKMVAQEGPTAFYKGFVPSFLRLGAWNVMMFVTYEQLKRALMKVQVLRESPF
With B1, in experiment [2], the binding entry is reported as “no binding”.

B2: full length ECH1 (yeast two-hybrid) (enzyme, UniProt Q13011 1-328)
chain: MAAGIVASRRLRDLLTRRLTGSNYPGLSISLRLTGSSAQEEASGVALGEAPDHSYESLRVTSAQKHVLHVQLNRPNKRNAMNKVFWREMVECFNKISRDADCRAVVISGAGKMFTAGIDLMDMASDILQPKGDDVARISWYLRDIITRYQETFNVIERCPKPVIAAVHGGCIGGGVDLVTACDIRYCAQDAFFQVKEVDVGLAADVGTLQRLPKVIGNQSLVNELAFTARKMMADEALGSGLVSRVFPDKEVMLDAALALAAEISSKSPVAVQSTKVNLLYSRDHSVAESLNYVASWNMSMLQTQDLVKSVQATTENKELKTVTFSKL
In the case of B2, the binding result is “no binding” in experiment [3]; “no binding” in experiment [4]; “binds” in experiment [5]; “no binding” in experiment [6]; “binds” in experiment [7]; “binds” in experiment [8].
